Experimental data reported in PMC4227792 (Nucleic Acids Research, 2014).
Construct, isoform or probe ends are uncertain for at least one entry. Weaker means in comparison with the reference protein, sequence or condition of that experiment. Where a protein sequence is shown, tags need not be part of it.

Target: T1, DnaG-E175Q (Saccharolobus (Sulfolobus) solfataricus) (UniProt P95980)
T1 sequence (looked up, limits assumed): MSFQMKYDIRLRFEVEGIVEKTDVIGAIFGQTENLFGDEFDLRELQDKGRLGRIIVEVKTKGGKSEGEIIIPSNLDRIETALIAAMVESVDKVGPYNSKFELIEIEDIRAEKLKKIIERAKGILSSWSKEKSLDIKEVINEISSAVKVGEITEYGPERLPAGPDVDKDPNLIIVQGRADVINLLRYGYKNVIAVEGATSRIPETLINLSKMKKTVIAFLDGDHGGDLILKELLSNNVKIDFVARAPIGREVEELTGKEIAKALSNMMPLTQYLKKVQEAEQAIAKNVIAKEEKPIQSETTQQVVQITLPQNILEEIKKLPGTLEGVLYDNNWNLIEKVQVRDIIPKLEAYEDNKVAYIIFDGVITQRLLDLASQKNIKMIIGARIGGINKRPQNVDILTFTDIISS
Assay: EMSA
Conditions: 25 fmol RNA, 2.5 pmol protein; 20 mM HEPES pH 7.9, 60 mM KCl, 10 mM MgCl2, 10% glycerol, 2 mM DTT, 0.1 mM EDTA; room temperature 5 min, 10 ul; 5% native PAA gel at 4 C; recombinant protein; label: 5' label (radioactive)

Question: Does “AAAAAAAAAAAAAAAAAAAAAAAAAAAAAA [poly(rA)30]” bind?
Answer: binds more weakly
